Out of some 52,000 sequences screened, about 210 (0.4%) were called active.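 How the source made its calls: active means gene whose silencing raises cell survival under the drug, median off-target-corrected z-score across its silencing RNAs 2 or more; inactive means the rest.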 This is one part of the list.
Experiment: Resistance to Poly (ADP-Ribose) Polymerase inhibitor: Gene Identification via Genome-wide siRNA Screen
Details: mouse BRCA2 R2336H ES cells, olaparib, CellTiter-Glo viability; stronger effect = higher value
Summary of the method: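 Mouse BRCA2 R2336H ES cells were reverse-transfected with siRNA (20 nM final), treated at 48 h with 500 nM olaparib, and read by CellTiter-Glo after 72 h. Scores: MAD-based z per siRNA, median per gene, seed off-target correction.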

Q: Which z-score does the source give for “GGAGGAGGACUUUGAUGACTT against 5830417I10Rik” here?
A: inactive: -0.0133

Q: For “GGCUCUUGGAUAUUUCCGATT against 2610027L16Rik”, which z-score is on record?
A: inactive: -0.315

Q: Which z-score does the source give for GGAGGAGAAAACAGGAAUUTT against H2-Eb1 here?
A: inactive: -0.0615

Q: For GCUGCUUCAUGCAAGACCUTT against Zswim1, which z-score is on record?
A: inactive: 0.239

Q: For “GGACACCACCGACUUUUUUTT against 2310073E15Rik”, which z-score is on record?
A: inactive: 0.311

Q: For CCCAAACAUUGAAGCUCUGTT against Fez1, which z-score is on record?
A: inactive: -0.656

Q: For GGAGGCUCUAAAGAGACACTT against Olfr498, which z-score is on record?
A: inactive: 1.09

Q: Which z-score does the source give for GCAGAGCGAUUAUAUGGACTT against Rnpepl1 here?
A: inactive: -0.599

Q: Which z-score does the source give for “CCUGCUCUCCUCAUUAUGUTT against 6530404N21Rik” here?
A: inactive: -0.252

Q: For GCAAAAGACCAUCUGAGUGTT against BC054059, which z-score is on record?
A: inactive: 0.689

Q: Which z-score does the source give for “CGGUGAUGGUUCAUUUGCATT against D11Bwg0280e” here?
A: inactive: 0.368

Q: For “GGCUCUAUCUUAAAAUAACTT against 4930542C12Rik”, which z-score is on record?
A: inactive: 0.213

Q: For “GGAGCUACGAAAAUUAACATT against B230114P05Rik”, which z-score is on record?
A: inactive: -1.89

Q: For CCGAGAACUUGACUCUUCATT against Ppp1r15b, which z-score is on record?
A: inactive: 2.11

Q: Which z-score does the source give for GGCCUACAUACUCCUGAAGTT against ttc21a here?
A: inactive: -2.41

Q: Which z-score does the source give for “GGACUAAGAUUUGUGUUAGTT against 0610011N22Rik” here?
A: inactive: -0.334

Q: With GGCUAUGUCAUUUACAGGATT against Rpl15 as the sequence, how does the z-score read?
A: inactive: -3.26

Q: Which z-score does the source give for GGCCGUGUUAAGGAAUCUGTT against Cidea here?
A: inactive: -1.02

Q: Which z-score does the source give for GCAAAGCUACUCACUUCUUTT against Nck2 here?
A: inactive: 1.04

Q: For CCAUGUUACGGAUUAUCUATT against BC037651, which z-score is on record?
A: inactive: -0.678

Q: Which z-score does the source give for “GGAUGAGAAACUUCAGCUGTT against 2810451A06Rik” here?
A: inactive: 0.0917

Q: For GGAUGAUAUAGUUUGUACCTT against Kctd7, which z-score is on record?
A: inactive: 0.111

Q: For GGACUUCAGUUACAACCGGTT against Nr1h3, which z-score is on record?
A: inactive: 4.24

Q: With GCAGAUGGUACUACUGAGCTT against Egfl7 as the sequence, how does the z-score read?
A: inactive: 0.404

Q: For GCUUCUCUACACCACAGACTT against Olfr796, which z-score is on record?
A: inactive: 0.598

Q: Which z-score does the source give for GGACUGUUCUUUCAAUAAGTT against Disp2 here?
A: inactive: -0.448

Q: With “CCGCUUUCGGCAAGUAUGGTT against 1700012H05Rik” as the sequence, how does the z-score read?
A: inactive: -0.0385

Q: Which z-score does the source give for GCAGAGAUUACACAAAUAGTT against Brd7 here?
A: inactive: -1.3

Q: Which z-score does the source give for “GGUAGGGUUUCAUUAUGAATT against 1500003D12Rik” here?
A: inactive: 0.908

Q: With CGUCCCUAGUAUAAAAAGATT against Cxxc5 as the sequence, how does the z-score read?
A: inactive: -0.568

Q: Which z-score does the source give for GCAUCAUCGUGGGAAACCUTT against Olfr1284 here?
A: inactive: 2.12

Q: Which z-score does the source give for GCAAUUGAGACUGGCCUCATT against Olfr151 here?
A: inactive: 0.42

Q: For “GGAUGCUAUAUGUUGGCCGTT against D730001G18Rik”, which z-score is on record?
A: inactive: -0.507

Q: For CCUGUUGUCAUGCACUUUATT against Pla2g4c, which z-score is on record?
A: inactive: 1.21

Q: With GAGUAUGCUACCAAUUCCUTT against Olfr1141 as the sequence, how does the z-score read?
A: inactive: -0.222

Q: With CCUACGUUCAAGACUCGAGTT against Ptgir as the sequence, how does the z-score read?
A: inactive: -1.08

Q: Which z-score does the source give for “CCAUAAAGAACAUCACUAATT against C330012H03Rik” here?
A: inactive: -0.31

Q: With “GAGCUGCUAAUGGAACCCUTT against 5730411O18Rik” as the sequence, how does the z-score read?
A: inactive: -1.34

Q: Which z-score does the source give for GGUAUUUCAGAUAACCUGGTT against Gm1805 here?
A: inactive: 0.0577

Q: Which z-score does the source give for GGUGCCGCACACAAACAAUTT against Hipk2 here?
A: inactive: 2.34

Q: Which z-score does the source give for GGCGAGUCUACGUGACACUTT against Arrb1 here?
A: inactive: -0.347

Q: With GGACAUUUGAGCUCAAGAUTT against Mrpl11 as the sequence, how does the z-score read?
A: inactive: -0.148

Q: With UCCUCUCUCUAUAUUUCUUTT against Defb38 as the sequence, how does the z-score read?
A: inactive: -0.168

Q: Which z-score does the source give for CGAAAUUGAUUCUAUCUGCTT against Katnal1 here?
A: inactive: -0.271

Q: For GCCGUUUUCCACCAAUGACTT against Ammecr1, which z-score is on record?
A: inactive: -0.787

Q: For CGCUUGACACUCACACUUUTT against Hoxa9, which z-score is on record?
A: inactive: 0.637

Q: Which z-score does the source give for GGUUUCUGCAUUGAUAAGATT against Olfr727 here?
A: inactive: 0.194

Q: For “CCCUCAUACCGCUUAGAACTT against 4833401D15Rik”, which z-score is on record?
A: inactive: -0.415

Q: With GGAAGGUAUAGACAACUAUTT against Syngr3 as the sequence, how does the z-score read?
A: inactive: -1.11

Q: With GGUCCUGAAGAAGAUUGCATT against Hmox1 as the sequence, how does the z-score read?
A: inactive: -1.95

Q: Which z-score does the source give for GGUAGAUAUUGGAAUACCUTT against Vcp here?
A: inactive: -1.91

Q: For GGGAAGAAGCCCAAAUGCUTT against Pla2g2a, which z-score is on record?
A: inactive: -0.754

Q: Which z-score does the source give for GGUGAAGCCAGUUUCUUUATT against AI429613 here?
A: inactive: 1.42

Q: Which z-score does the source give for GAAGAGUAACGAAGAAUACTT against Olfr199 here?
A: inactive: -0.791

Q: For GGGCCACACAUCAAACAGUTT against Fsip1, which z-score is on record?
A: inactive: 1.88

Q: Which z-score does the source give for “CGGAAGAAGUUAUUUAGAATT against 1700006J14Rik” here?
A: inactive: -0.374

Q: With CCUGCUCCAACGUAAUGUCTT against Ldh3 as the sequence, how does the z-score read?
A: inactive: -1.58

Q: For GGUUGUCGUCAUCCUGGAATT against Kcnj3, which z-score is on record?
A: inactive: 1.61

Q: Which z-score does the source give for CCAGUACUCACUAGAUUUATT against Tnfsf18 here?
A: inactive: 0.701

Q: With GGAAAACAAGAGAAGGCGCTT against Pom121 as the sequence, how does the z-score read?
A: inactive: -0.933

Q: Which z-score does the source give for “GGUUCUCAAAGAAAAGUUUTT against 1810056O20Rik” here?
A: inactive: -0.145

Q: Which z-score does the source give for GGUGAAAUCCUGAUGUUUUTT against Vps33b here?
A: inactive: 0.0823

Q: Which z-score does the source give for CCUUCCUAAGCUUACACAATT against Cradd here?
A: inactive: -0.761

Q: For GGUAGCCAUAUCUAACAGCTT against Scd1, which z-score is on record?
A: inactive: 0.197

Q: With GGUGAUGAGCAGAAUCCAGTT against BC004701 as the sequence, how does the z-score read?
A: inactive: -0.121

Q: With CCCUAUGCAAUAUCAAAAUTT against Hnrpa1 as the sequence, how does the z-score read?
A: inactive: -0.658

Q: For GGUGCUGUAUUUGAUGUUATT against Nudt6, which z-score is on record?
A: inactive: 0.00281

Q: With GCAAAUGUCUCGGAAAGAATT against Cdc2l1 as the sequence, how does the z-score read?
A: inactive: -3.6

Q: With GCACCGAGUGCAAUAGUGUTT against Kremen as the sequence, how does the z-score read?
A: inactive: 2.19

Q: With GCACUCACGAUCAUCUUUGTT against Has1 as the sequence, how does the z-score read?
A: inactive: 0.122

Q: For GGAGAAGAUGCCAAUCAAGTT against Mdm1, which z-score is on record?
A: inactive: 0.229

Q: Which z-score does the source give for “AAUAACAGGCCGGUCGAGATT against 2410025L10Rik” here?
A: inactive: -0.531

Q: Which z-score does the source give for “GCAGUUCACGCAGUGGAAGTT against 2200001I15Rik” here?
A: inactive: 0.855

Q: For “CCGCUCUACCACAGCCUUATT against 3732413I11Rik”, which z-score is on record?
A: inactive: -1.97

Q: With GGACAUUGCUACACAACUCTT against Akp3 as the sequence, how does the z-score read?
A: inactive: 0.851

Q: With “GGUAUAAAGACUGUGUAAATT against 2610305D13Rik” as the sequence, how does the z-score read?
A: inactive: -0.437

Q: With GGCAAAUCACAUCCAACAATT against Cyp2c39 as the sequence, how does the z-score read?
A: inactive: -1.28

Q: For GCGAAAGCCUCUCCAUAAGTT against Lnx1, which z-score is on record?
A: inactive: -0.162

Q: For GGGUGCCUUAAAAAAACUCTT against Olfr136, which z-score is on record?
A: inactive: -0.749

Q: With GGUGGAUAGUUAUAAAGCATT against AU016693 as the sequence, how does the z-score read?
A: inactive: -1.13

Q: With GGGUUGAAGUUUGUCGAAATT against Nlgn1 as the sequence, how does the z-score read?
A: inactive: -0.228

Q: For GGAAGAUUCGUUCAGACCUTT against Cntf, which z-score is on record?
A: inactive: 0.48

Q: With “GCUGUACAGUCAAUACCUGTT against D10Bwg1364e” as the sequence, how does the z-score read?
A: inactive: 2.01

Q: For GGCGUAAGUUGGAUUUGUUTT against Idh3b, which z-score is on record?
A: inactive: 0.425

Q: Which z-score does the source give for GGAAAAUGUCCGUAAAAGGTT against Dtx2 here?
A: inactive: 0.845

Q: Which z-score does the source give for “GGCAAACUCUAUCUCCAAATT against 2610524G09Rik” here?
A: inactive: 0.0995

Q: For “GCCACUUCAUAUUUUUGACTT against 4632422M10Rik”, which z-score is on record?
A: inactive: -0.417

Q: With GGCAUUUGAAAUGCUCAUCTT against Aadat as the sequence, how does the z-score read?
A: inactive: -0.837

Q: For GCACGCCUGAUGCUAGAGATT against Gss, which z-score is on record?
A: inactive: -1.45

Q: Which z-score does the source give for “GGAAAAAAGCCGGGAAACCTT against 2410026K10Rik” here?
A: inactive: -0.986

Q: For CGGUCCUGAGGAAGUGUUATT against Wfdc1, which z-score is on record?
A: inactive: 2.47

Q: For GGAGGAAUUUGGCUAUAAUTT against Arfip2, which z-score is on record?
A: inactive: -2.36

Q: Which z-score does the source give for GGUUUUACCACAGAUUUGCTT against Olfr42 here?
A: inactive: -1.11

Q: For “GGAAGAAUUGGCAAGUGCUTT against 0610012D17Rik”, which z-score is on record?
A: inactive: -0.32

Q: With GCAGCAUACUAAUAAACUGTT against Them2 as the sequence, how does the z-score read?
A: inactive: 0.278

Q: With GGAUAUUCCGGAAGAUAUUTT against Mrpl13 as the sequence, how does the z-score read?
A: inactive: -0.0797

Q: For GGCCUUAGAAUUUGAUUCUTT against Slc30a8, which z-score is on record?
A: inactive: 1.95

Q: For GGCUUUCCUAUCAUGGUUUTT against Anp32e, which z-score is on record?
A: inactive: -0.278

Q: For CGGCAUCCUAGACACCUUUTT against Rax, which z-score is on record?
A: inactive: 1.14

Q: Which z-score does the source give for GACUCUCACCUCCUUGAAUTT against Krtap16-8 here?
A: inactive: -0.327

Q: For “GGUUAAACUGUGAAUCCAUTT against A930037J23Rik”, which z-score is on record?
A: inactive: 1.03

Q: For GCUUGUCUCACACAGCUCUTT against Olfr401, which z-score is on record?
A: inactive: -0.379

From PubChem BioAssay AID1347423 (Functional Genomics Laboratory (NCATS/FGL), 2020)
